Data as given in PubChem BioAssay AID1508597 (Cure First, 2020)
Purpose: 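Survival screen with siRNA in ovarian cancer cells derived from patients, with or without rucaparib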 (primary screen). Cells: human ovarian carcinoma lines grown from tumours: OCI-P5x (papillary serous) and OCI-C5x (clear cell). Reagents: siRNA pool against human genes, 1.25 pmol siRNA per well. Time to read-out: 72 h or 96 h, depending on the cell culture. Treatment: rucaparib 20 µM (about IC30) or vehicle, present until read-out. Rucaparib or vehicle: Vehicle. Cell line: OCI-C5x (clear cell). Detection: 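ATP luminescence measured at 72 or 96 h according to the culture, then normalised and expressed as percent viability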. Scale: viability, normalised: higher = more viable cells remaining. Active means: 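Active when normalised viability falls below 80 percent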. Calls: active = viability under 80%; inactive = viability 80% or more.
Shown is an unselected part of the about 2,100 reagents, in one setting of the screen. 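Calls flag viability under 80% in either arm, not effects specific to rucaparib; the reference for percent is not stated.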 A reagent listed more than once was tested more than once; the source does not tell the runs apart. Not given: the 100% reference.

target	technical replicate	viability, normalised (%)	activity call
RIOK3	1	56.8	active
RIOK3	2	86.1	inactive
RIOK3	3	68.3	active
KMT2B	1	54.8	active
KMT2B	2	46.9	active
KMT2B	3	53.9	active
MYLK2	1	44.8	active
MYLK2	2	30.8	active
MYLK2	3	32.4	active
RECQL5	1	84.8	inactive
RECQL5	1	42.9	active
RECQL5	2	34.2	active
RECQL5	2	99.8	inactive
RECQL5	3	33.2	active
RECQL5	3	77.2	active
QPCT	1	47.8	active
QPCT	2	49.3	active
QPCT	3	57.9	active
IFNAR2	1	67.4	active
IFNAR2	2	64.2	active
IFNAR2	3	79.8	active

Next part; the last 6 above are carried over.
target	technical replicate	viability, normalised (%)	activity call
QPCT	1	47.8	active
QPCT	2	49.3	active
QPCT	3	57.9	active
IFNAR2	1	67.4	active
IFNAR2	2	64.2	active
IFNAR2	3	79.8	active
PMVK	1	108	inactive
PMVK	2	63	active
PMVK	3	48.6	active
MACROD1	1	59.8	active
MACROD1	2	67.4	active
MACROD1	3	64.3	active
DNAJC5	1	118	inactive
DNAJC5	2	70.7	active
DNAJC5	3	93.4	inactive
EGFR	1	42.3	active
EGFR	2	66.1	active
EGFR	3	60.6	active
PIK3CG	1	87.7	inactive
PIK3CG	2	91.1	inactive
PIK3CG	3	74.2	active
HASPIN	1	52.6	active
HASPIN	1	52.4	active
HASPIN	1	55.4	active
HASPIN	2	41.5	active
HASPIN	2	40.7	active
HASPIN	2	55	active
HASPIN	3	47.1	active
HASPIN	3	51.3	active
HASPIN	3	61.2	active
